Laboratory results taken from patent US20170000132A1, “BENZOXABOROLE FUNGICIDES” (SYNGENTA PARTICIPATIONS AG, priority 2013, published 2017).
Some results were stated once for a whole list of compounds, not compound by compound. For at least one compound, name, drawing or mass did not settle the structure.

Columns and labels:
Type in all cases: cell-based
[1] = test system: Glomerella lagenarium (Colletotrichum lagenarium); assay: Glomerella lagenarium / liquid culture (anthracnose); details: 200 ppm, PDB, 3-4 days after application
Gaeumannomyces graminis = Gaeumannomyces graminis / liquid culture (take-all of cereals); details: 200 ppm, PDB, 4-5 days after application
[2] = test system: Monographella nivalis (Microdochium nivale); assay: Monographella nivalis / liquid culture (foot rot cereals); details: 200 ppm, PDB, 4-5 days after application
Pythium ultimum = Pythium ultimum / liquid culture (seedling damping off); details: 200 ppm, potato dextrose broth, 2-3 days after application
[3] = test system: Mycosphaerella graminicola (Septoria tritici); assay: Mycosphaerella graminicola / liquid culture (Septoria blotch); details: 200 ppm, PDB, 4-5 days after application

Measured: disease control (inhibition of growth, photometric)

O=[N+]([O-])c1ccc(ON=Cc2ccc3c(c2)COB3O)cc1 (single isomer, unassigned) [Compound 420]
at least 80%: all assays above

OB1OCc2cc(Cl)cc(C=NOCC=C(Cl)Cl)c21 (single isomer, unassigned) [Compound 199]
at least 80%: all assays above

OB1OCc2cc(Cl)cc(C=NOCc3ccccc3F)c21 (single isomer, unassigned) [Compound 193]
at least 80%: all assays above

CCOC(=O)C(C)ON=Cc1cc(F)cc2c1B(O)OC2 (single isomer, unassigned) [Compound 281]
at least 80%: all assays above

OB1OCc2cc(F)cc(C=NOCc3ccccc3)c21 (single isomer, unassigned) [Compound 272]
at least 80%: all assays above

COC(=O)Cc1ccccc1CON=Cc1cc(F)cc2c1B(O)OC2 (single isomer, unassigned) [Compound 287]
at least 80%: all assays above

COC(=O)Cc1ccccc1CON=Cc1cc(Cl)cc2c1B(O)OC2 (single isomer, unassigned) [Compound 210]
at least 80%: all assays above

OB1OCc2cccc(C=NOCc3ccc(Cl)cc3)c21 (single isomer, unassigned) [Compound 327]
at least 80%: all assays above

CC(Cl)=CCON=Cc1cc(Cl)cc2c1B(O)OC2 [Compound 198]
at least 80%: all assays above

C=C(Cl)CON=Cc1cccc2c1B(O)OC2 (single isomer, unassigned) [Compound 332]
at least 80%: all assays above

CCCON=Cc1ccc2c(c1)COB2O (single isomer, unassigned) [Compound 418]
at least 80%: all assays above

Cc1ccc(NN=Cc2cc3c(cc2F)COB3O)cc1 (single isomer, unassigned) [Compound 88]
at least 80%: all assays above

CCCCCCON=Cc1cc(F)cc2c1B(O)OC2 (single isomer, unassigned) [Compound 276]
at least 80%: all assays above

CC(C)=CCON=Cc1cc(Cl)cc2c1B(O)OC2 (single isomer, unassigned) [Compound 200]
at least 80%: all assays above

OB1OCc2cccc(C=NOCC=CCl)c21 [Compound 325]
at least 80%: all assays above

CC(C)(C)ON=Cc1ccc2c(c1)COB2O (single isomer, unassigned) [Compound 395]
at least 80%: all assays above

OB1OCc2cc(C=NOCc3ccccc3)ccc21 (single isomer, unassigned) [Compound 394]
at least 80%: all assays above

CCCCON=Cc1ccc2c(c1)COB2O (single isomer, unassigned) [Compound 401]
not listed: Pythium ultimum
at least 80%: all other assays above

CCC#CCOc1ccc(CON=Cc2ccc3c(c2)COB3O)cc1OC (single isomer, unassigned) [Compound 429]
not listed: Pythium ultimum
at least 80%: all other assays above

CC(C#Cc1cccs1)=CCON=Cc1ccc2c(c1)COB2O [Compound 427]
not listed: Pythium ultimum
at least 80%: all other assays above

CC(C)ON=Cc1cc2c(cc1F)COB2O (single isomer, unassigned) [Compound 138]
at least 80%: all assays above

CC(Cl)=CCON=Cc1cc(F)cc2c1B(O)OC2 [Compound 279]
at least 80%: all assays above

OB1OCc2cc(Cl)c(C=NOCC=C(Cl)Cl)cc21 (single isomer, unassigned) [Compound 50]
not listed: Pythium ultimum
at least 80%: all other assays above

CC(C)CON=Cc1ccc2c(c1)COB2O (single isomer, unassigned) [Compound 409]
at least 80%: all assays above

C#CCOc1ccc(CON=Cc2ccc3c(c2)COB3O)cc1OC (single isomer, unassigned) [Compound 428]
not listed: Pythium ultimum
at least 80%: all other assays above

CC(Cl)=CCON=Cc1ccc2c(c1)COB2O [Compound 404]
not listed: Pythium ultimum
at least 80%: all other assays above

OB1OCc2cc(C=NOCc3ccccc3F)ccc21 (single isomer, unassigned) [Compound 398]
not listed: Pythium ultimum
at least 80%: all other assays above
